Reference: paper PMC10163288
This is one part of the list.

B1: il2ra_site1_1z92_normal_mot_HHH_b1_07196_000000117_0001_22_39_H_._HHH_b1_00806_0001_0000100002_0000001_1_af2pred_0001_af2pred_1 (protein)
chain: SSSSDEEKKEARELFQRANEALENGNPEEARELLEEAEELAEEGNNPSLLRSIRLALKALESSSS
B2: il2ra_site2_2erj_normal_mot_HHH_b1_02968_000000142_0001_22_39_H_._HHH_b2_06361_0001_0000300022_0000001_0_af2pred_0001_1_af2pred_swapped (protein)
chain: SSSSSSSEEEEAEELLEEAKRLKDRREVMRLALEADRLANELGNDELAEEIQEVFERKSSSSSSS
B3: il2ra_site2_3nfp_normal_mot_HHH_b2_08004_af2_000000020_0001_1_15_H_._HHH_b2_02380_0001_0000300014_0000001_1_af2pred_0001_af2pred (protein)
chain: SSSSSQLEEAVKAALRTAKLAYEEGDPELAEIALHFAKAVAIAYNNPELEREVEEVERELKSSSS
B4: il2ra_site2_3nfp_sap_10_mot_73f63e3ba0c5fbd29b02c38bc3203c89_0001_1_000000101_0001_17_33_H_._HHH_b2_00001_0001_0000300016_0000001_1_0001_af2pred_0001_1_af2pred_ … (protein)
chain: SSSSSDAEELVRELLEEAKRIEDEEEVRKLAIEASRIAWERRDPRAFVLVAEFWRERAESSSSSS
B5: il2ra_site1_1z92_sap_11_mot_HHH_b1_07444_000000170_0001_1_15_H_._HHH_b1_02142_af2_0001_0000700018_0000001_0_0001_af2pred_0001_af2pred_swapped (protein)
chain: SSSSSELEERAKELVEEIVEEFGLSESDKRALERLAERAAELGSDDEAIRRDLERFAKFSTSSSS
B6: il2ra_site1_2b5i_sap_18_mot_89dc1dc23437faef961419e82e151d9c_0001_af2_000000202_0001_15_32_H_._9f08b0091ee0dae2b2d48aa630d4ec63_0001_1_0001_0000400022_0000001_0 … (protein)
chain: SSSSSIEELLEAMLELAEELIENGNPEEARAILLLARRAARAHGNPEYVKELERLLRELLSSSSS
B7: il2ra_site2_2erj_sap_22_mot_ef9cab360851164f21447f5d7f54bf9c_0001_1_000000008_0001_32_48_H_._5e8ab3ebaa49a9e680896593b179b5f8_0001_af2_0001_0000100011_0000001_0 … (protein)
chain: SSSSDEYEEEVKRLLEEAERAYEEGDLHEVYRLAVEATHLASEGNDDELLREVAKLAHRLSSSSS
B8: il2ra_site1_3nfp_sap_21_mot_HHH_b2_07180_000000236_0001_22_38_H_._HHH_b2_06514_0001_0000100002_0000001_0_0001 (protein)
chain: DEEEIKKEVQEILGVPPEEVEHIIRLMQKTMRVPPEEATRLLRRLARELEEGDPTAKLILRLLAE
B9: il2ra_site2_3nfp_normal_mot_0136b98644bc9a8eb58b95019b738ebb_0001_1_000000071_0001_1_13_H_._HHH_b1_01738_af2_0001_0000300010_0000001_0 (protein)
chain: SSSSDEEVDKLLVLLYRLLLEGDEEKFKEVLERLEELAEEHNDEDAKELVEEIREMREAASSSSS
B10: il2ra_site1_2b5i_sap_14_mot_f5ff40796168375b462bec8614a1db4a_0001_1_000000138_0001_53_65_H_._HHH_b1_06270_0001_0000300018_0000001_0_0001_af2pred_dldesign_0_af2p … (protein)
chain: SSSSSPLEKLVDEAIAKAEELKKQGKVREALEALQEAYDKASEADDEELQDRIEEKAKELSSSSS
B11: il2ra_site1_2b5i_normal_mot_f5ff40796168375b462bec8614a1db4a_0001_1_000000138_0001_53_65_H_._HHH_b2_04872_0001_0000400010_0000001_0_af2pred_dldesign_0_af2pred (protein)
chain: SSSSSSSVREDVDALLALAREEEDPVLRRRLLKLAEQLARKSGDPELVARVEEVRAELSSSSSSS
B12: il2ra_site1_3nfp_normal_mot_22aa8d8ad8dce7f663ea8fa348a52261_0001_000000276_0001_17_32_H_._a3b61943b7af24100a309c62926c5c00_0001_0001_0000400023_0000001_0_af2pr … (protein)
chain: SLEEKFEQVAREVGLPPVDIRAVKRIIEEARRQGVPPERILEALEDLAKALRDPDLEEVVELLER
B13: il2ra_site2_2erj_normal_mot_HHH_b2_01031_af2_000000243_0001_19_35_H_._HHH_b2_02620_af2_0001_0000600009_0000001_1 (protein)
chain: SSSSDLEEEVRELLEEIRELIKRGDEEEAEKLLHEAAELAFENNNFELFALISELFELLVRSSSS
B14: il2ra_site1_1z92_sap_17_mot_HHH_b1_07828_af2_000000107_0001_18_34_H_._HHH_b1_02318_0001_0000100003_0000001_0_0001_af2pred_0001_af2pred_swapped (protein)
chain: HDAEAVARQLEHFARRAGVKEVSVEVRNGTFHITVKGDDTHSESVRKLAEKLVKRSGHELEVETK
B15: il2ra_site2_3nfp_sap_17_mot_HHH_b2_07560_000000133_0001_43_56_H_._HHH_b2_05526_af2_0001_0000400015_0000001_0_0001 (protein)
chain: SSSSSSKAEEYVRAALALLKRIKDEELFERHREVIRLAIEDQGNEELRELLEEIEKQYRSSSSSS
B16: il2ra_site1_1z92_sap_14_mot_35b94aac26684153dbcc4bf06a514b74_0001_1_000000068_0001_35_49_H_._HHH_b2_01455_af2_0001_0000100011_0000001_0_0001 (protein)
chain: SSSSSDEKVAKAIVRVLVQVARLSEEQEEILERLAEELVREGYSALEIMRILDKRAAELQSSSSS
B17: il2ra_site1_1z92_sap_14_mot_HHH_b2_04375_000000267_0001_42_56_H_._HHH_b1_00305_0001_0000100012_0000001_0_0001_af2pred_0001_af2pred_1 (protein)
chain: SSSSSDKEELLERVTELWRRLAKVSREEAEKLLEEAEELAEEAGDELIEEELRHFLERLSSSSSS
B18: il2ra_site1_3nfp_sap_10_mot_86920ccf215a9397388743310839e631_0001_1_000000296_0001_18_34_H_._HHH_b1_06234_0001_0000700033_0000001_1_0001_af2pred_0001_af2pred_sw … (protein)
chain: TILERLIALAVEEGNERQIKRVVEQMEKRLGDPEEARRLVVRALERALNIPPEEAEELVEELLER

molecular target: il2ra, P01589; test: yeast display titration

Apparent Kd, inactive:
B1 no binding seen
B2 no binding seen
B3 no binding seen
B4 no binding seen
B5 no binding seen
B6 no binding seen
B7 no binding seen
B8 no binding seen
B9 no binding seen
B10 no binding seen
B11 no binding seen
B12 no binding seen
B13 no binding seen
B14 no binding seen
B15 no binding seen
B16 no binding seen
B17 no binding seen
B18 no binding seen

Fetched one by one from the list above, 2 records:
Apparent Kd, inactive:
B18 no binding seen
B5 no binding seen
